Results from publication PMC7055126.
Results are given in words; binding and its absence hold for the method and conditions named. In cells and extracts the contact can be indirect. Some entries that bind do so weakly or less than the wild type.

Protein sequences, listed by entry. Tags and fused reporters are not part of them.
UniProt Q15910: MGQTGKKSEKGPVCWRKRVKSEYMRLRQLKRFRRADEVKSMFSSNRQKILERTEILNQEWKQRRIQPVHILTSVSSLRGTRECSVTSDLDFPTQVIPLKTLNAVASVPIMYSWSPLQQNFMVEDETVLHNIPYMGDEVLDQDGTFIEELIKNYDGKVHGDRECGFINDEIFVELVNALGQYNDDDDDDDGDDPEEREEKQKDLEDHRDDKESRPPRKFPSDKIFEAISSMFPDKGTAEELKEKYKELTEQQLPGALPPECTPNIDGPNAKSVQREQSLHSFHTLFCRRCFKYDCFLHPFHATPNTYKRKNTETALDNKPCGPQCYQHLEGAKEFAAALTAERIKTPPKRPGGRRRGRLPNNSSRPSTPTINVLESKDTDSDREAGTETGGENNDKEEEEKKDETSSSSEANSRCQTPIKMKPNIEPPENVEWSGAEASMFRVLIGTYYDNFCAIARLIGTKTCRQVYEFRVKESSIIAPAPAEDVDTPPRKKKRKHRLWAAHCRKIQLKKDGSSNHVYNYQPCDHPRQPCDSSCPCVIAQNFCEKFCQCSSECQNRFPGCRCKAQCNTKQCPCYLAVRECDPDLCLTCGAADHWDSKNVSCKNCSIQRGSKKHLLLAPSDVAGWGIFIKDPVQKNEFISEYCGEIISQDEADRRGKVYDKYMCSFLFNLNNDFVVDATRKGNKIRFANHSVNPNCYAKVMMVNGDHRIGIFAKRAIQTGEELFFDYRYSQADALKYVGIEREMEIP
UniProt P25490: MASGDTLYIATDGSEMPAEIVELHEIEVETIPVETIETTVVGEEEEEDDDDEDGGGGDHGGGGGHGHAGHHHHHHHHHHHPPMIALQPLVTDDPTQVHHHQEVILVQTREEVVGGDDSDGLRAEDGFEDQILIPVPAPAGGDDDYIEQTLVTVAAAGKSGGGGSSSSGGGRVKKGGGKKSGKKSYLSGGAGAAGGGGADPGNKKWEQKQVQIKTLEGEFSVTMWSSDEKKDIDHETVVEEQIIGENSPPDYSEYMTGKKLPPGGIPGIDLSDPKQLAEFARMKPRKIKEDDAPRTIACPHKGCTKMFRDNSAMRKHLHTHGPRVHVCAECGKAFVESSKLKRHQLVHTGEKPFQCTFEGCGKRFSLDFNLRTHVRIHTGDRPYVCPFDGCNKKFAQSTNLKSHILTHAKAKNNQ

Biological target: EZH2 (human (endogenous in HuAECs)) (UniProt Q15910)
Assay: co-IP; co-immunoprecipitation then western blot from HuAECs overexpressing miR-544 or miR-mut (control); endogenous proteins; the precipitating antibodies are not told in the text shown (full methods in the supplement)

binding: binds
Substance: YinYang 1 (YY1) (from UniProt P25490 1-414)
